Experimental data taken from patent publication US20190350931A1, “COMBINATION THERAPY” (GlaxoSmithKline Intellectual Property Development Limited, priority 2016, published 2019).
At least one compound was matched to its structure with a doubt left.

How the values were obtained:
[1] = tested on: MCL cell lines; assay: 6-day growth/death assay in a panel of MCL lines; format: cell-based
From the text: FIG. 18: Activity of PRMT5 inhibitor and ibrutinib as single agents and in combination in MCL cell lines. […] C.
• The strongest mechanistic link currently described between PRMT5 and cancer is in MCL. PRMT5 is frequently overexpressed in MCL and is highly expressed in the nuclear compartment where it increases levels of histone methylation and silences a subset of tumor suppressor genes. Importantly, cyclin D1, the oncogene that is translocated in the vast majority of MCL patients, associates with PRMT5 and through a cdk4-dependent mechanism increases PRMT5 activity. PRMT5 mediates the suppression of key genes that negatively regulate DNA replication allowing for cyclin D1-dependent neoplastic growth. PRMT5 knockdown inhibits cyclin D1-dependent cell transformation causing death of tumor cells.

[2] = tested on: MCL; conditions: cited from earlier work

SMILES: C=CC(=O)N1CCC[C@@H](n2nc(-c3ccc(Oc4ccccc4)cc3)c3c(N)ncnc32)C1 [ibrutinib, reference compound]
- sensitivity (gIC50) of Z-138, Maver-1 and JVM-2 [1]: resistant
- sensitivity of Mino, Jeko-1 [1]: sensitive
- median progression-free survival ([2]; MCL patients): approximately 14 months
- overall response rate ([2]; relapsed/refractory MCL): ~70%
